# Measurements reported in PubChem BioAssay AID540276 (National Center for Advancing Translational Sciences (NCATS), 2011).
# The campaign covered roughly 300,000 compounds. About 5,400 (1.8%) were called active. Inconclusive results, whose numbers are uncertain, are shown with a selection of clear calls. The call rests on the fitted dose curve; tested in HEK293 cells. Potencies beside an inconclusive call are fits to weak or partial responses and may not hold up.
# Test: qHTS for inhibitors of binding or entry into cells for Marburg Virus
# Conditions: Marburg virus pseudotyped entry inhibition, cell reporter; series mostly up to 37.8 µM
# Potency means the concentration at half of the fitted maximal effect.
row,Structure (SMILES),Potency
1,CCCCCN(C(=O)CCC(=O)OCC(=O)N(C)c1ccccc1)c1c(N)n(CCCC)c(=O)[nH]c1=O,"inconclusive: 6.31 µM [inhibitor, single point]"
2,CCCCCSc1nnc2c(n1)OC(c1ccc(C)s1)N(C(C)=O)c1ccccc1-2 (stereo not drawn),"inconclusive: 35.5 µM [inhibitor, single point]"
3,COc1ccc(C(=O)Nc2cccc(C(=O)N/N=C/c3ccc(OC)cc3OC)c2)cc1,inactive
4,O=C(O)c1ccc(Cn2cnc3scc(-c4ccccc4)c3c2=O)cc1,inactive
5,Cc1cc(-n2c(C)cc(C(=O)CSc3ccc4c(c3)OCCO4)c2C)no1,"inconclusive: 0.164 µM [inhibitor, full curve, poor fit]"
6,O=C(NCCSCc1ccco1)Nc1cccc(Cl)c1,inactive
7,CCc1cc(C(=O)NN2C(=O)NC3(CCCCC3)C2=O)sc1C,"inconclusive: 15.8 µM [activator, single point]"
8,CC1CCCN(S(=O)(=O)c2ccc(S(=O)(=O)NC(C)c3cccs3)cc2)C1 (stereo not drawn),"inconclusive: 18.3 µM [inhibitor, single point]"
9,CNC(=O)c1cc(C(=O)c2ccc(Cl)cc2)c[nH]1,inactive
10,Nc1nnn(CC(=O)N/N=C/c2cccc(Cl)c2)n1,"inconclusive: 1.12 µM [inhibitor, partial curve, poor fit]"
11,COc1cc(/C=C/C(=O)OCC(=O)Nc2ccccc2Cl)cc(OC)c1OC,inactive
12,Cc1csc(NC(=O)Cc2c(F)cccc2Cl)n1,"inconclusive: 3.55 µM [activator, single point]"
13,COc1cc([N+](=O)[O-])c2nc(C=NNC(N)=S)ccc2c1,inactive
14,CCC1S/C(=N/N=C/c2cccs2)NC1=O (stereo not drawn),inactive
15,CCCC12C(=O)C(C)(C(c3ccccc3)=C1c1ccccc1)C1C(=O)N(c3ccc(C)cc3)C(=O)C12 (stereo not drawn),"inconclusive: 35.5 µM [inhibitor, single point]"
16,Cc1ccc(NC(=O)COC(=O)CSC(=S)N2CCOCC2)cc1,inactive
17,CC(=O)c1c(C)[nH]c(C(=O)OCc2ccc(F)cc2Cl)c1C,"inconclusive: 3.55 µM [inhibitor, full curve]"
18,CN(C(=O)CSc1ncc(C(F)(F)F)cc1Cl)c1c(N)n(Cc2ccccc2)c(=O)[nH]c1=O,"inconclusive: 7.08 µM [inhibitor, partial curve, poor fit]"
19,O=C(Nc1cc(Cl)ccc1-n1cncn1)c1ccc([N+](=O)[O-])s1,inactive
20,CCOC(=O)CNC(=O)CSc1ncnc2c1cnn2-c1ccc(OC)cc1,active: 11.2 µM
21,O=C(N/N=C/c1ccccc1OC(=O)c1ccc2c(c1)OCO2)c1ccccc1,inactive
22,OCCC1CN(Cc2ccc3nsnc3c2)CCN1C1CCCCC1 (stereo not drawn),"inconclusive: 3.16 µM [inhibitor, single point]"
23,CCN(CC)c1ccc(/C=N/NC(=O)CNC(=O)c2ccccn2)cc1,"inconclusive: 2 µM [activator, partial curve, poor fit]"

row,Structure (SMILES),Potency
1,COc1ccc2nc(N=Nc3ccc(N(C)C)cc3)sc2c1,"inconclusive: 5.17 µM [inhibitor, full curve, poor fit]"
2,Cc1nc(N2CCN(c3ccccn3)CC2)c2c(C)c(C(=O)Nc3ccc(F)cc3)sc2n1,"inconclusive: 8.91 µM [inhibitor, partial curve, poor fit]"
3,CCCSc1nsc(NC(=O)CC)n1,active: 12.6 µM
4,COc1ccc(OC)c(-c2ccccc2C=NNS(=O)(=O)c2ccc(C)cc2)c1,"inconclusive: 6.68 µM [inhibitor, single point]"
5,Cc1ccc(C)c(N2CCN(C(=O)Cn3cccc3)CC2)c1,"inconclusive: 16.4 µM [inhibitor, partial curve, poor fit]"
6,Cn1cc(CN2CCCC(CNC(=O)c3ccc4c(c3)OCO4)C2)c2ccccc21 (stereo not drawn),active: 7.94 µM
7,CN(C)CCCNC(=O)c1cc(C(=O)C2CCCCC2)c[nH]1,"inconclusive: 1 µM [inhibitor, full curve, poor fit]"
8,N#CC1(c2ccccc2)CCCN1C(=O)c1ccccc1Br (stereo not drawn),"inconclusive: 0.447 µM [activator, partial curve, poor fit]"
9,CCOc1c(C(=O)CC)cc2c(C)cc(=O)oc2c1C,inactive
10,COc1cccc(NC(=O)Cn2c(=O)n(Cc3ccccc3)c(=O)c3c4c(sc32)CN(C(C)=O)CC4)c1,inactive
11,O=C(O)CCN1C(=O)/C(=C\c2cccc(OCc3ccccc3)c2)SC1=S,inactive
12,COc1ccc(C2NCCc3c2[nH]c2ccccc32)cc1COc1ccc(F)cc1 (stereo not drawn),"inconclusive: 18.4 µM [inhibitor, partial curve, poor fit]"
13,O=C(OCC(=O)N1CCN(c2ccccc2)CC1)c1cccc([N+](=O)[O-])c1,"inconclusive: 14.1 µM [activator, partial curve, poor fit]"
14,N#C/C(=N\Nc1ccc(Cl)cc1)C(N)=S,"inconclusive: 8.91 µM [inhibitor, partial curve, poor fit]"
15,Cc1c(N=C/C=C/c2ccccc2)c(=O)n(-c2ccccc2)n1C,inactive
16,CN(C)CCCNc1nc2sc3c(c2c(=O)n1CCc1ccccc1)CCCCC3,active: 7.08 µM
17,COc1ccc(/C=C/C(=O)NCc2ccc(F)cc2)cc1S(=O)(=O)N1CCOCC1,inactive
18,O=S(=O)(c1cccc(F)c1)N1CCN(c2ncnc3scc(-c4ccc(F)cc4)c23)CC1,"inconclusive: 35.5 µM [inhibitor, single point]"
19,Cc1cc2nc(SCCOC(=O)Nc3ccc(Cl)cc3)nc(C)c2cc1C,"inconclusive: 1.26 µM [activator, single point]"
20,O=C(Nc1cccc(O)c1)c1ccccc1,"inconclusive: 0.184 µM [activator, single point]"
21,Cc1cc(NC(=O)CSc2nc3c([nH]c4ccccc43)c(=O)n2-c2ccccc2F)no1,"inconclusive: 35.5 µM [inhibitor, single point]"
22,CCCCNc1nc(Oc2ccc(=O)n(-c3ccccc3)n2)nc(N(CC)CC)n1,inactive
23,Cc1nccn1CCCN1C(=O)CNC1=S,"inconclusive: 6.31 µM [activator, partial curve, poor fit]"

# An excerpt of the results above, for reference:
row,Structure (SMILES),Potency
11,COc1cc(/C=C/C(=O)OCC(=O)Nc2ccccc2Cl)cc(OC)c1OC,inactive
12,Cc1csc(NC(=O)Cc2c(F)cccc2Cl)n1,"inconclusive: 3.55 µM [activator, single point]"
13,COc1cc([N+](=O)[O-])c2nc(C=NNC(N)=S)ccc2c1,inactive

# The results go on:

row,Structure (SMILES),Potency
1,COc1ccc(CNC(=O)CSc2nc(-c3ccccc3)cc(-c3cccs3)c2C#N)cc1,"inconclusive: 10.3 µM [inhibitor, partial curve]"
2,CCCCN(CCCNC(=O)C1CCN(C(=O)c2cc3sccc3n2C)CC1)Cc1ccccc1,"inconclusive: 7.94 µM [inhibitor, partial curve, poor fit]"
3,O=C(Nc1ccccc1O)c1ccc(Cl)cc1,"inconclusive: 3.66 µM [activator, full curve]"
4,CCOC(=O)c1c(NC(=O)CSc2nnc(CNc3ccc(Cl)cc3)o2)sc(C)c1C,"inconclusive: 15.8 µM [inhibitor, single point]"
5,Cc1ccc(-c2nnc(SCC(=O)N3CCCc4ccccc43)o2)cc1,"inconclusive: 5.62 µM [inhibitor, single point]"
6,Cc1cc(N/N=C/c2ccccc2O)nc(-c2ccccc2O)n1,inactive
7,CCCCCCc1cc2cc(C(=O)Nc3ccc(OC)cc3)c(=O)oc2cc1O,"inconclusive: 10 µM [inhibitor, partial curve, poor fit]"
8,CCCOP(=O)(OCCC)C(Nc1ccc(C(C)C)cc1)c1ccc([N+](=O)[O-])cc1 (stereo not drawn),"inconclusive: 18.3 µM [inhibitor, partial curve, poor fit]"
9,CCC(=O)NC(=S)Nc1ccc(NC(=O)CC)cc1,"inconclusive: 1.84 µM [activator, partial curve]"
10,CCS(=O)(=O)NCCCCc1ccccc1,inactive
11,CCOc1ccc2[nH]c3c(NCCc4ccc(OC)c(OC)c4)ncnc3c2c1,"inconclusive: 11.2 µM [inhibitor, partial curve, poor fit]"
12,O=C(O)C1CCN(c2nc(-c3ccccc3)nc3c2oc2ccccc23)CC1,"inconclusive: 14.1 µM [inhibitor, single point]"
13,Cn1nc(-c2ccccc2)c(COC(=O)c2cccc(Cl)c2)c1S(=O)(=O)c1ccccc1,inactive
14,C[C@@H]1[C@H](c2ccccc2)c2cc3ccccc3nc2C(=O)C[C@@H]1C(=O)N1CCCC1,"inconclusive: 5.31 µM [inhibitor, single point]"
15,COc1ccc(N2CCN(C3CCCN(Cc4cccc(OC)c4)C3)CC2)cc1 (stereo not drawn),"inconclusive: 31.6 µM [inhibitor, single point]"
16,COC(=O)[C@@]1(Cc2ccc(OC)cc2)[C@H]2c3cc(C(=O)N(C)C)n(CCc4ccc(OC)c(Br)c4)c3C[C@H]2CN1C(=O)c1ccccc1,"inconclusive: 11.6 µM [inhibitor, partial curve, poor fit]"
17,Cc1cc(Cl)ccc1OCC(=O)NNC(=O)c1ccc(=O)[nH]c1,inactive
18,CN(C)C(CNC(C(=O)Nc1ccc([N+](=O)[O-])cc1Br)c1ccccc1)c1ccccc1 (stereo not drawn),"inconclusive: 14.1 µM [inhibitor, partial curve, poor fit]"
19,O=S(=O)(NCCC1CC1(Cl)Cl)c1ccc(Cl)cc1 (stereo not drawn),"inconclusive: 5.01 µM [inhibitor, full curve, poor fit]"
20,N#CC1(NC(=O)CSc2nc3ccccc3s2)CCCCC1,"inconclusive: 14.1 µM [activator, partial curve, poor fit]"
21,Cn1c(-c2ccccc2)cc2c3no[n+]([O-])c3ccc21,active: 3.55 µM
22,O=C(COC(=O)CCC1CCCC1)Nc1ccccc1Sc1ccccc1,inactive
